Results are given in words; binding and its absence hold for the method and conditions named. Binding can be weak; no strength is given. For some of these results: Where a sequence is shown, tags or fusion partners need not be part of it. For some of these results: In cells and extracts the contact can be indirect.
How the values were obtained:
[1] = biological target: Pst_12806-cEYFP (Puccinia striiformis f. sp. tritici); experiment: split reporter; BiFC with nEYFP and cEYFP halves (pSATN vectors), agroinfiltrated N. benthamiana leaves, OD600 0.5, confocal microscopy two days after inoculation
[2] = biological target: Pst_12806:GFP (pCAMBIA1302) (Puccinia striiformis f. sp. tritici); experiment: co-IP; Pst_12806:GFP, TaISP:HA and P19 co-expressed in N. benthamiana; leaf extract on magnetic beads with anti-GFP, 4 °C 4 h; blots with anti-GFP and anti-HA
[3] = biological target: Pst_12806 without signal peptide, Gal4 binding domain fusion (pGBKT7-Pst_12806) (Puccinia striiformis f. sp. tritici); experiment: two-hybrid; GAL4 system, pairwise; pGBKT7-Pst_12806 (without signal peptide) with pGADT7 preys in yeast AH109; growth on SD-LWH or SD-LWHA and LacZ activity with X-α-gal
[4] = biological target: Pst_12806 without signal peptide, Gal4 binding domain fusion (pGBKT7-Pst_12806) (Puccinia striiformis f. sp. tritici); experiment: two-hybrid; Matchmaker GAL4 system; Pst_12806 as bait against a cDNA library of Pst-infected wheat leaves; six chloroplast-related hits tested again with Pst_12806 (method of the re-test not named)

B1: TaISP-nEYFP (protein, UniProt Q7X9A6 50-222)
chain: ADRVPDMSKRELMNLLLLGAISLPTFGMLVPYGSFLVPAGSGSNAGGVAAKDKLGNDILVEDWLKTHGPNDRTLAQGLKGDPTYLVVESDKTLATYGINAVCTHLGCVVPWNAAENKFLCPCHGSQYNNQGKVVRGPAPLSLALVHADVDDGKVVFVPWVETDFRTGDNPWWK
binding [1]: binds

B2: TaISP:HA (pICH86988) (protein, UniProt Q7X9A6 50-222)
chain: B1 chain
binding [2]: binds

B3: TaISP, Gal4 activation domain fusion (pGADT7-TaISP) (protein, UniProt Q7X9A6 1-222)
chain: MASTALSTASNPTQLCRTRASSLCKPVKGLGFGRERIPRNITCMAGSISADRVPDMSKRELMNLLLLGAISLPTFGMLVPYGSFLVPAGSGSNAGGVAAKDKLGNDILVEDWLKTHGPNDRTLAQGLKGDPTYLVVESDKTLATYGINAVCTHLGCVVPWNAAENKFLCPCHGSQYNNQGKVVRGPAPLSLALVHADVDDGKVVFVPWVETDFRTGDNPWWK
binding [3]: binds | binding [4]: binds
